Reference: doi:10.1101/564625
These are yes or no findings as the source states them, for the method shown. Binding seen in cells or lysates may run through a third protein. Tags and fused reporters may be left off the sequences shown.

Chains of the proteins cited; added tags and fusions are not shown.
UniProt Q9UJU2: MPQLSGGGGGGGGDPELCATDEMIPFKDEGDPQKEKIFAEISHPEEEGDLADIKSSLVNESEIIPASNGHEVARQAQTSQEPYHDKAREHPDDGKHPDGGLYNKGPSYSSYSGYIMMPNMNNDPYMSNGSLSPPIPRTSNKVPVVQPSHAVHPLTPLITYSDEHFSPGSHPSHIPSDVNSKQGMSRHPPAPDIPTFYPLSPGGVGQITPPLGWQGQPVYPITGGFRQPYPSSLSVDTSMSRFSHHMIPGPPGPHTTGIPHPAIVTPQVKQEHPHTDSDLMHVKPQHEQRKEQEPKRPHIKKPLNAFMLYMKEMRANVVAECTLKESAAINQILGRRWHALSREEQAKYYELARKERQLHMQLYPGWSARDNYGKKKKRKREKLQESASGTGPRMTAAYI

Biological target: T1, V5-FOXB2 (human) (UniProt Q5VYV0)
T1 sequence: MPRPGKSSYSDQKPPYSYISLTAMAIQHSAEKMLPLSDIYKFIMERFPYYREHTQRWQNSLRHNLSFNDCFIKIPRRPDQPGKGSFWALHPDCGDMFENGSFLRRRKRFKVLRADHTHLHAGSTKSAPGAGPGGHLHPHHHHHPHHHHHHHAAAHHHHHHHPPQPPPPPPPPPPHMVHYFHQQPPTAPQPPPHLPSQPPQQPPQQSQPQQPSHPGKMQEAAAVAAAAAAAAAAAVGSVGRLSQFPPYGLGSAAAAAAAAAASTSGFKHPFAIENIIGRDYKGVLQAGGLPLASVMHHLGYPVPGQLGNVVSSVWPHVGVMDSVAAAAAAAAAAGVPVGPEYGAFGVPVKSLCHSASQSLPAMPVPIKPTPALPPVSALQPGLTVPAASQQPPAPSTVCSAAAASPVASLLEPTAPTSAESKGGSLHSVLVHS
Experiment: proximity ligation

binding: no binding
Substance: Flag-LEF1 (293T) (from UniProt Q9UJU2 1-399)
